Molecules are shown by their SMILES. Structures can show the parent of a compound that is named as a salt.

For data set [1], the system named is L. major ΔLCB2 promastigotes. It counts as cell-based, Leishmania major. To be noted: EC50 WT versus ΔLCB2 L. major promastigotes.
For data set [2], the target named is T1, LmjIPCS (Leishmania major, UniProt E9AFX2).
T1 construct: made in house
Kind of data set: HPTLC based LmjIPCS assay. In kind it is biochemical. To be noted: microsomes treated with 5 mM compound; NBD-C6-ceramide and PI. The source says: CF was originally selected from a screen for inhibitors of the sphingolipid synthase, (L. majIPCS) and to verify that this new analogue retained this profile we applied the same assays as used before. […] To support inhibition of the IPCS, the HPTLC biochemical assay described by Mina et al.[16] was employed. In this, using a microsomal preparation of the L. majIPCS, a fluorescent substrate NBD-C6-ceramide was combined with PI and the two drugs. Following the reaction, the product, NBD-C6-IPC, and residual starting material were separated via HPTLC and analysed by fluorescence spectroscopy.
°C and 5% CO2. Aliquots of resazurin solution (10 μL) were then added and the cells were incubated at 37 °C and 5% CO2 for 4 h. Cell-viability measurement was carried out using a fluorescence plate reader. […]
days. Infected ear thicknesses were measured once or twice a week with a caliper gauge, and the lesion sizes were expressed as the difference between the thickness of infected and non-infected ear. On day 41 animals were sacrificed and the fluorescence measured (485 - 528 nm) and parasite load quantified using a limiting dilution assay (LDA).
(§1) Data on lesion progression were analysed for statistical significance by using the Dunnett test as part of the one-way ANOVA (GraphPad Prism 8 software). […]
Product quantification was carried out using a fluorescence plate reader

The test system of data set [3] is L. amazonensis GFP promastigotes. The experiment in a line: mouse model of L. amazonensis infection (ear, IL dosing). The conditions noted are these: 1.2 mg kg^−1 IL twice a week for 4 weeks. The procedure:
Consequently, we used IL dosing for this experiment. To enable direct comparison with CF, the same treatment regimen (dose of 1.2 mg kg^−1via IL injection twice a week for 4 weeks starting on DPI) was used for both compounds.
A Weight variation of mice during 28 days of treatment. B Progression of lesion thickness over 28 day treatment period. C Representative photographs of the infected ear for each group taken after completion of treatment, D parasite burden was evaluated by LDA on 36 days post infection. […]
In vivo assays were conducted as previously reported 1. Two month old BALB/c female mice, weighing 20 - 25 g and of approximately the same age were used for the study. For infection of mice, stationary phase GFP L. amazonensis promastigotes were collected, washed and suspended in sterile PBS. A volume of 10 μl of sterile PBS containing 2 x 10^6 parasites was injected into the right ear. […]
Infected ear thicknesses were measured once or twice a week with a caliper gauge, and the lesion sizes were expressed as the difference between the thickness of infected and non-infected ear. On day 41 animals were sacrificed and the fluorescence measured (485 - 528 nm) and parasite load quantified using a limiting dilution assay (LDA).
as §1

Data set [4] concerns the target T2, L. majIPCS (Leishmania major, UniProt E9AFX2).
T2 sequence (E9AFX2 1-338): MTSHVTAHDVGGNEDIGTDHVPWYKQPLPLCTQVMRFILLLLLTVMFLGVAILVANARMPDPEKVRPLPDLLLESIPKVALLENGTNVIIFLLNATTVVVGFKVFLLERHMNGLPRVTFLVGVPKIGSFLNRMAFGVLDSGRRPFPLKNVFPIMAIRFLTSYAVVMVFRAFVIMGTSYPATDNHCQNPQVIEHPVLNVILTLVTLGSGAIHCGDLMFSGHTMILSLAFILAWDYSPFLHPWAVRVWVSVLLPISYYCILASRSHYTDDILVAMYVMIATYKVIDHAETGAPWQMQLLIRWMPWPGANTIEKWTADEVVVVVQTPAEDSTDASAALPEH
The conditions noted are these: ref Mina et al.1, cited from earlier work.

Data set [5] concerns L. major promastigotes (FV1) WT. To be noted: read-out: L. major promastigote EC50; ref Mina et al.1; cited from earlier work.
The test system of data set [6] is L. amazonensis promastigotes. To be noted: read-out: L. amaz promastigote EC50; ref Mina et al.1; cited from earlier work.
Data set [7] deals with bone marrow derived macrophages (BMDM). The conditions noted are these: read-out: BMDM CC50; ref Mina et al.1; cited from earlier work.

A word on the IC50: it is the concentration that gives 50% inhibition. For orientation: EC50 means the concentration giving half of the maximal effect. On to `CN1CCC[C@@H]1CCO[C@](C)(c1ccccc1)c1ccc(Cl)cc1` [1a, clemastine fumarate], for which the “times more active against WT than mutant ΔLCB2 promastigotes” value in data set [1] is “approximately 3 times”. For the same compound, the “NBD-C6-IPC product formation (HPTLC)” value in data set [2] is “No product was observed”. Moreover, the “weight variation of mice during treatment” value in data set [3] is “small weight loss”. Moreover, in data set [4] (20 µM), the “LmjIPCS inhibition % at 20 µM ± SD” value is recorded as 82.6 ± 9.3%. The half-inhibitory concentration (IC50) in data set [4] (read-out: LmjIPCS IC50) was 2870 nM. Moreover, the EC50 is 179 nM in data set [5] and 27 nM in data set [6]. In data set [7], the CC50 is 19100 nM.

The values above are taken from article PMC11862611, “Simple accessible clemastine fumarate analogues as effective antileishmanials” (RSC Medicinal Chemistry, 2025).
